Part of at least one peptide drawing is inferred or uncertain, most often the ends. No end group written: not given here.
How the values were obtained:
AsPC-1 xenograft = AsPC-1 xenograft cancer animal model: tumor volume and tumor weight; assay type: in vivo, nude mouse
AsPC-1 cells = assay type: cell-based; conditions: AsPC-1, MTT, 24 or 48 hours, concentration gradient
Method: Through 3-(4,5-dimethylthiazol-2-yl)-2,5-diphenyltetrazolium bromide (MTT) analysis, an effect of the anticancer peptide GJ101 on the cell viability of cancer cells was examined. For the cell viability analysis, AsPC-1 cells as a pancreatic cancer cell line were used. The pancreatic cancer cell line was prepared by dispensing the pancreatic cancer cell line at 1×10^3 cells/well (100 μL) and adhering thereto. To treat the anticancer peptide GJ101, the medium of the cells was replaced with a new medium (RPMI-1640). The pancreatic cancer cell lines with different adhering times were treated with the anticancer peptide GJ101 while increasing a concentration gradient, respectively. The pancreatic cancer cells treated with the anticancer peptide GJ101 were incubated for 24 or 48 hours, respectively. Each incubated pancreatic cancer cell was added with an MTT solution (5 mg/mL) and incubated for 90 minutes. After the end of the incubation, an optical density (OD) of pancreatic cancer cells was measured at 540 nm using a microplate reader (Molecular Devices, USA), and a maximum concentration (GI50) at which the growth of pancreatic cancer cells was reduced by half was confirmed. The result of examining the effect of the anticancer peptide GJ101 on the cell viability of tumor cells was illustrated in FIG. 5.

KRAS G12V protein = KRAS G12V protein (Homo sapiens, UniProt P01116, G12V); assay: isothermal titration calorimetry (ITC) affinity to KRAS G12V; assay type: binding; conditions: 25° C.

Question: Which results are given for LYDVA [GJ101]?
Answer: tumor weight decrease compared to the control group (AsPC-1 xenograft; 25 mg/kg): 36%; tumor weight decrease compared to the control group (AsPC-1 xenograft; 50 mg/kg): 46%; tumor volume (AsPC-1 xenograft; GJ101-treated group, control increased significantly from 2 days after administration): not increased; effect on cell viability (AsPC-1 cells): decreased the cell viability in a time- and dose-dependent manner; K (ITC) (KRAS G12V protein; 0.1 mM KRAS G12V, 1.0 mM GJ101, Tris-HCl pH 7.4): 86500 ± 26900 M⁻¹; ΔH (ITC) (KRAS G12V protein; Tris-HCl pH 7.4): -0.9944 ± 0.08347 kcal/mol; ΔS calculated from K and ΔH (KRAS G12V protein; standard thermodynamic equation): 19.3 cal/mol/deg

— patent US20240165208A1, “Mutant KRAS-Targeting Peptide and Use Thereof” (GJMEDI INC., priority 2020, published 2024)
